In article PMC8297976:
No constants are given. Whether binding was seen depends on the method and setting. In cells and extracts the contact can be indirect. Some binding calls cover weakened binding; strength is not graded here.

Amino acid sequences for entries named in this document (tags omitted).
UniProt Q1W668: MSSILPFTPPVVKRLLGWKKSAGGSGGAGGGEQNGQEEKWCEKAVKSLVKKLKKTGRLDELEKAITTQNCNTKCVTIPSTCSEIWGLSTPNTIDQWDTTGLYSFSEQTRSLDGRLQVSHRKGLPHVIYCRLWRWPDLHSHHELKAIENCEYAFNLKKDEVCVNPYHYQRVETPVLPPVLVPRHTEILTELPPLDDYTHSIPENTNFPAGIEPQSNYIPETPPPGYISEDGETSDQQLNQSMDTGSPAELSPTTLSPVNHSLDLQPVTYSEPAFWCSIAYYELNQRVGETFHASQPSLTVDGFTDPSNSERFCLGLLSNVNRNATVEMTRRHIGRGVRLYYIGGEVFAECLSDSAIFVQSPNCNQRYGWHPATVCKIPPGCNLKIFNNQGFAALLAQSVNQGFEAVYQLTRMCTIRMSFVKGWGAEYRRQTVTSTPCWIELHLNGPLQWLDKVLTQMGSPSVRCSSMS
UniProt F1MUZ3: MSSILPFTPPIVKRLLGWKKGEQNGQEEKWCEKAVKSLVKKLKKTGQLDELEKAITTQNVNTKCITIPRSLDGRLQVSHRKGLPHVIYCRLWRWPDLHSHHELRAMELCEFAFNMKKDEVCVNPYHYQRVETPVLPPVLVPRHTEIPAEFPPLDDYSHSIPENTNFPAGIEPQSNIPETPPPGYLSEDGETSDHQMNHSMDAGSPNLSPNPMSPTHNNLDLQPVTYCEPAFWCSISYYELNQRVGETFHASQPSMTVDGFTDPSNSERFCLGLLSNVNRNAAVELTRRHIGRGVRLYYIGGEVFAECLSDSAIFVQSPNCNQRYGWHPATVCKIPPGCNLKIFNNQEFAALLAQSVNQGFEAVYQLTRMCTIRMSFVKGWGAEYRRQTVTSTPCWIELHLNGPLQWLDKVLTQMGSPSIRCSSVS

Target: T1, Ufm1 binding protein 1 (Ufbp1) (bovine (endogenous in liver tissue of dairy cows)) (UniProt Q1LZB0)
T1 sequence: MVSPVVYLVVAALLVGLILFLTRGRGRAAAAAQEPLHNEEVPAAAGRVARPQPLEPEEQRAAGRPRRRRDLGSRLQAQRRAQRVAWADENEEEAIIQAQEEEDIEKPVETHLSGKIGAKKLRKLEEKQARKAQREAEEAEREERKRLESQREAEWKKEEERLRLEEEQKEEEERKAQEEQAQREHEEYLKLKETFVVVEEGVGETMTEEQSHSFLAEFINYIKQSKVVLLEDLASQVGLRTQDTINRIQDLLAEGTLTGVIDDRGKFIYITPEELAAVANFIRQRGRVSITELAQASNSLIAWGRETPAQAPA
Experiment: co-IP; endogenous proteins; lysates of bovine normal liver tissue incubated with the antibody at 4°C overnight, then protein A/G plus agarose beads for 4 h; immunoblotting; IgG as negative control

binding	Substance
no binding	Smad2 (from UniProt Q1W668 1-467)
binds	Smad3 (from UniProt F1MUZ3 1-425)
